According to publication PMC6430831:
Positions count from the first letter of the chain named. No constants are given. Whether binding was seen depends on the method and setting. In cells and extracts the contact can be indirect. Some results given as binding are weak or reduced against the parent protein; the word gives no strength. Tags and fused reporters may be left off the sequences shown.

Experiments:
[1] = target: T1, GEF-H1 S399A/S886A double mutant (human) (UniProt Q92974); assay: co-IP; HEK293T cells transfected with the indicated plasmids (GEF-H1 WT or variants with IRF5, IKKε, IKKβ; with or without RIPK2 or NOD2); precipitated with anti-GEF-H1, protein G agarose; lysis buffer 1% NP-40, 20 mM Tris-HCl pH 7.4, 150 mM NaCl; partners detected by western blot
T1 sequence: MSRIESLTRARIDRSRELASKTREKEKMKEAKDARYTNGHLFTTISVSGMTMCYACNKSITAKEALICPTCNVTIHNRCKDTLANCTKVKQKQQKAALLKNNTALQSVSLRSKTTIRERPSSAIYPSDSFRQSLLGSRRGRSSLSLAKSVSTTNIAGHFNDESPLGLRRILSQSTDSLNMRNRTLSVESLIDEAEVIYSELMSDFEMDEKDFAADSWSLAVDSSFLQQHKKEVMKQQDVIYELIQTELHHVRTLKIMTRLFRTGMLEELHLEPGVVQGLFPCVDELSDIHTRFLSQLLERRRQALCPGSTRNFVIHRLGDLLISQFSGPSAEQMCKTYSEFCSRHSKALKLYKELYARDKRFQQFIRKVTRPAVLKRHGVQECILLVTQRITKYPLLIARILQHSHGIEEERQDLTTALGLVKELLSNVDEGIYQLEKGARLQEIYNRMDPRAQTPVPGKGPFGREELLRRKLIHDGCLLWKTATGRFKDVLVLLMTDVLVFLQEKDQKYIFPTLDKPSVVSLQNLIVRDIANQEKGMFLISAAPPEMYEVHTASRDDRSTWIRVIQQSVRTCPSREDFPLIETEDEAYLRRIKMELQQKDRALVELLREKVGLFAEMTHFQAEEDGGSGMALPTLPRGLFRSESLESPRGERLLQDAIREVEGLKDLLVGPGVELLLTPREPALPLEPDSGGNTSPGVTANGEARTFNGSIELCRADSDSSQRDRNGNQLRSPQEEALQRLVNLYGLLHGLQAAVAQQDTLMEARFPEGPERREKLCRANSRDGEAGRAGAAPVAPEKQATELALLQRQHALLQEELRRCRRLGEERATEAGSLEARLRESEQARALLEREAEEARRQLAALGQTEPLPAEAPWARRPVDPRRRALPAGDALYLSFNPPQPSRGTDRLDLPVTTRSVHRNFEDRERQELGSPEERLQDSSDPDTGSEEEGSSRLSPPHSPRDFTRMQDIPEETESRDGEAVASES

[2] = target: T2, GEF-H1 double-mutant S324A/S886A (human) (UniProt Q92974); assay: as above
T2 sequence: T1 sequence with S324A, A399S

binding [1]: binds | binding [2]: binds
B1: human IKKε (pcDNA3-huIKKε-flag) (enzyme, UniProt Q14164 1-716)
chain: MQSTANYLWHTDDLLGQGATASVYKARNKKSGELVAVKVFNTTSYLRPREVQVREFEVLRKLNHQNIVKLFAVEETGGSRQKVLVMEYCSSGSLLSVLESPENAFGLPEDEFLVVLRCVVAGMNHLRENGIVHRDIKPGNIMRLVGEEGQSIYKLTDFGAARELDDDEKFVSVYGTEEYLHPDMYERAVLRKPQQKAFGVTVDLWSIGVTLYHAATGSLPFIPFGGPRRNKEIMYRITTEKPAGAIAGAQRRENGPLEWSYTLPITCQLSLGLQSQLVPILANILEVEQAKCWGFDQFFAETSDILQRVVVHVFSLSQAVLHHIYIHAHNTIAIFQEAVHKQTSVAPRHQEYLFEGHLCVLEPSVSAQHIAHTTASSPLTLFSTAIPKGLAFRDPALDVPKFVPKVDLQADYNTAKGVLGAGYQALRLARALLDGQELMFRGLHWVMEVLQATCRRTLEVARTSLLYLSSSLGTERFSSVAGTPEIQELKAAAELRSRLRTLAEVLSRCSQNITETQESLSSLNRELVKSRDQVHEDRSIQQIQCCLDKMNFIYKQFKKSRMRPGLGYNEEQIHKLDKVNFSHLAKRLLQVFQEECVQKYQASLVTHGKRMRVVHETRNHLRLVGCSVAACNTEAQGVQESLSKLLEELSHQLLQDRAKGAQASPPPIAPYPSPTRKDLLLHMQELCEGMKLLASDLLDNNRIIERLNRVPAPPDV
